Results as given in US20150017203A1, “COMBINATION PRODUCT FOR TREATING EXCESS WEIGHT AND/OR FOR IMPROVING THE FIGURE” (INSTITUT NATIONAL DE LA RECHERCHE AGRONOMIQUE - INRA, priority 2012, published 2015).

Assay: Plasma dosages (non-esterified fatty acids, triglycerides, cholesterol, glucose)
Type: in vivo, mice
Method: 100 male mice C57 Black 6/J aged 5 weeks (January, France) were accommodated in individual cages in the pet center of the INRA center, Theix, in thermoregulated premises (20-22° C.) and submitted to alternating 12 hour-cycles of light and darkness. […] The mice weight was measured every 2 weeks. Prior to being sacrificed, mice after 15 h fasting were anesthetized through barbital intraperitoneal injection (1.5 μl/g). Blood was collected in EDTA-containing specimen collectors before being centrifuged (12000 rpm, 4 min, room temperature). Plasma was thereafter collected, distributed in aliquots and frozen in liquid nitrogen, then stored at −80° C. The adipose peri-epididymal tissue, liver and leg triceps muscle (gastrocnemius muscle), tibialis and quadriceps muscles were weighted, frozen in liquid nitrogen, then stored at −80° C.

[1] = difference with high-lipid diet alone (HL), mice, 3 weeks

CC(C)c1c(C(=O)Nc2ccccc2)c(-c2ccccc2)c(-c2ccc(F)cc2)n1CC[C@@H](O)C[C@@H](O)CC(=O)O [Statin, Atorvastatin]
Plasma levels: Non esterified fatty acids [1]: −11%
Plasma levels: Triglycerides [1]: −13%
Plasma levels of non-esterified fatty acids compared to control mice (vs control mice): to a lesser extent
